At least one structure is not confirmed: it was looked up by name or label, or the drawing left a doubt.
Tested on: PC12 cell
Test: Inhibition of [3H]-norepinephrine release from PC12 cells
Assay type: cell-based
Details: normal PC12 cells, FIG. 4
Description: PC12 cells were cultured in a Ham's F12K medium where 10% […], 5% fetal bovine serum, and antibiotics were added in a collagen-coated plate (60 mm dish). In subculture, after sucking of the medium, 2 ml of PBS was added and cells were separated from a dish wall through pipetting. Then, centrifugation with 1,000×g for 5 minutes was carried out to obtain cells. A new medium was introduced, and a cell pellet was dispersed through pipetting and was loaded onto a new culture plate. And culture was carried out at 37° C. in a culture medium providing 5% CO2 gas. [^3H]-norepinephrine used for the experiment was purchased from Amersham. After sucking of the medium in the plate of PC12 cells, PBS was added and cells were separated from a plate wall. Then, the number of cells was measured by a hemacytometer, and the cells were dispersedly inoculated into a new medium at a concentration of 2×10^5 cell/ml. After 24 hours, a buffer solution ([^3H]—NE, 1.5 μCi/ml) for assay of norepinephrine was added, and then the cells were induced in a carbon dioxide incubator for 90 minutes. After the reaction, the buffer solution was removed and the cells were washed three times with PBS. Then, a new medium and each polyphenol compound were loaded and a reaction was performed for 30 minute. […]

Structure (SMILES): Oc1cc(O)c2cc(O)c(-c3ccc(O)c(O)c3)[o+]c2c1 [Cyanidin]
- Norepinephrine release inhibiting effect (in words): relatively high norepinephrine release inhibiting effects
